Experimental data published in the supplement of paper PMC12282887.

Tested on: Escherichia coli BW25113
Assay: growth (OD600 area under curve, 8 h) (OD600 x h); higher = more growth
Method: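 E. coli BW25113 reporter strains (wild type, ΔmarA, ΔsoxS, Δrob, each carrying one of 8 lux reporter plasmids) were grown in 40 µl LB in 384-well plates at 37°C, 800 rpm, with each compound at 4 two-fold concentrations, in biological duplicates. Growth is the baseline-corrected OD600 area under the curve over 8 h (0-8 h WT, 1-9 h deletion strains).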

CCCCCCCCCCCCC[N+](C)(C)Cc1ccccc1 [Benzalkonium]
growth
Conditions	reporter plasmid: EVC	reporter plasmid: acrABp	reporter plasmid: marRABp	reporter plasmid: micFp	reporter plasmid: ompFp	reporter plasmid: robp	reporter plasmid: soxSp	reporter plasmid: tolCp
1.9 µg/ml, genetic background: wild type	2.13	2.85	3.08	2.85	2.75	2.92	2.55	2.848
1.9 µg/ml, genetic background: ΔmarA	2.71	3.71	3.08	2.77	3.21	3.19	2.23	2.66
1.9 µg/ml, genetic background: Δrob	1.92	3.097	3.27	2.44	2.4	2.47	2.44	2.31
1.9 µg/ml, genetic background: ΔsoxS	2.34	2.81	3.22	2.04	2.62	2.91	2.58	2.24
3.7 µg/ml, genetic background: wild type	2.13	2.86	3.18	2.89	2.96	3.176	2.588	2.85
3.7 µg/ml, genetic background: ΔmarA	2.83	4.29	3.6	2.99	3.46	3.78	2.44	2.72
3.7 µg/ml, genetic background: Δrob	2.03	3.17	3.47	2.72	2.48	2.57	2.59	2.47
3.7 µg/ml, genetic background: ΔsoxS	2.36	2.93	3.34	2.26	2.84	3.42	2.8	2.25
7.4 µg/ml, genetic background: wild type	2.57	2.86	3.16	3.14	2.95	3.38	2.86	3.03
7.4 µg/ml, genetic background: ΔmarA	2.792	4.33	4.02	3.36	3.35	3.74	2.37	2.64
7.4 µg/ml, genetic background: Δrob	2.06	3.05	3.53	3.03	2.5	2.76	2.75	2.41
7.4 µg/ml, genetic background: ΔsoxS	2.81	3	3.3	2.41	2.88	3.532	2.95	2.6
14.9 µg/ml, genetic background: wild type	0.86	-0.242	0.0564	-0.00431	-0.0485	0.0185	0.254	1.47
14.9 µg/ml, genetic background: ΔmarA	-0.178	-0.0306	0.00624	-0.0306	-0.0883	0.149	0.606	0.132
14.9 µg/ml, genetic background: Δrob	-0.308	0.00388	-0.0395	-0.087	-0.0754	-0.0981	-0.102	0.131
14.9 µg/ml, genetic background: ΔsoxS	1.84	0.00694	0.0286	-0.0384	-0.018	-0.0596	0.0227	1.4

Cc1c(N)nc([C@H](CC(N)=O)NC[C@H](N)C(N)=O)nc1C(=O)N[C@H](C(=O)N[C@H](C)[C@@H](O)[C@H](C)C(=O)N[C@H](C(=O)NCCc1nc(-c2nc(C(=O)NCCC[S+](C)C)cs2)cs1)[C@@H](C)O)[C@@H](OC1OC(CO)C(O)C(O)C1OC1OC(CO)C(O)C(OC(N)=O)C1O)c1cnc[nH]1 (stereo not given in full) [Bleomycin]
growth
Conditions	reporter plasmid: EVC	reporter plasmid: acrABp	reporter plasmid: marRABp	reporter plasmid: micFp	reporter plasmid: ompFp	reporter plasmid: robp	reporter plasmid: soxSp	reporter plasmid: tolCp
0.038 µg/ml, genetic background: wild type	2.56	3.05	3.25	2.91	3	3.21	2.97	2.95
0.038 µg/ml, genetic background: ΔmarA	3.09	3.92	3.49	3.04	3.24	3.74	2.74	2.64
0.038 µg/ml, genetic background: Δrob	2.67	2.78	3.11	2.9	2.41	2.56	2.69	2.85
0.038 µg/ml, genetic background: ΔsoxS	2.8	2.84	2.88	2.34	2.66	2.98	3.06	2.94
0.076 µg/ml, genetic background: wild type	2.64	2.77	2.95	2.8818	2.79	3.094	2.897	2.68
0.076 µg/ml, genetic background: ΔmarA	2.63	3.38	3	2.86	2.9	3.43	2.44	2.47
0.076 µg/ml, genetic background: Δrob	2.77	2.49	2.68	2.76	2.07	2.25	2.75	2.82
0.076 µg/ml, genetic background: ΔsoxS	2.93	2.51	2.65	2.58	2.44	2.69	2.92	2.99
0.15 µg/ml, genetic background: wild type	1.9	2.2	2.45	2.32	2.38	2.67	2.54	2.37
0.15 µg/ml, genetic background: ΔmarA	2.369	2.45	2.19	1.98	1.82	2.6	2.48	1.963
0.15 µg/ml, genetic background: Δrob	2.16	2.09	2.19	2.16	1.51	1.71	2.33	2.2
0.15 µg/ml, genetic background: ΔsoxS	2.36	2.01	2.2	1.87	1.93	2.25	2.4	2.14
0.3 µg/ml, genetic background: wild type	0.971	0.308	0.591	1.17	0.366	0.345	1.65	1.36
0.3 µg/ml, genetic background: ΔmarA	0.666	0.0259	-0.00097	0.388	-0.0875	0.418	0.88	0.241
0.3 µg/ml, genetic background: Δrob	0.835	0.0915	0.0356	0.603	-0.0484	0.00567	1.32	1.02
0.3 µg/ml, genetic background: ΔsoxS	1.02	0.0103	0.0564	0.221	-0.0198	-0.0105	0.442	0.937

Cn1c(=O)c2c(ncn2C)n(C)c1=O [Caffeine]
growth
Conditions	reporter plasmid: EVC	reporter plasmid: acrABp	reporter plasmid: marRABp	reporter plasmid: micFp	reporter plasmid: ompFp	reporter plasmid: robp	reporter plasmid: soxSp	reporter plasmid: tolCp
24.3 µg/ml, genetic background: wild type	2.75	3.1	3.32	3.14	2.88	3.167	2.88	3.21
24.3 µg/ml, genetic background: ΔmarA	3.23	4.37	3.8	3.38	3.71	4.32	2.82	2.83
24.3 µg/ml, genetic background: Δrob	3.04	2.97	3.39	3.09	2.65	2.84	2.93	3
24.3 µg/ml, genetic background: ΔsoxS	3.19	3.01	3.12	2.61	3.18	3.18	3.32	3.17
48.5 µg/ml, genetic background: wild type	2.73	3.09	3.316	3.228	3	3.36	3.01	3.25
48.5 µg/ml, genetic background: ΔmarA	3.1	4.25	3.93	3.24	3.53	4.08	2.72	2.74
48.5 µg/ml, genetic background: Δrob	2.79	2.79	3.36	3.09	2.73	2.75	2.78	2.85
48.5 µg/ml, genetic background: ΔsoxS	3.14	2.91	3.07	2.54	3.182	3.13	3.11	3.12
97.1 µg/ml, genetic background: wild type	2.44	2.9	3.22	2.88	3.02	3.212	2.77	2.81
97.1 µg/ml, genetic background: ΔmarA	3.06	3.79	3.37	3.03	3.33	3.77	2.48	2.67
97.1 µg/ml, genetic background: Δrob	2.68	2.79	3.3	2.72	2.76	2.8	2.29	2.65
97.1 µg/ml, genetic background: ΔsoxS	2.86	2.73	3.03	2.42	3.04	3.27	3.02	2.63
194.2 µg/ml, genetic background: wild type	2.26	2.59	2.73	2.4	2.46	2.9	2.48	2.64
194.2 µg/ml, genetic background: ΔmarA	2.89	3.64	3.03	2.61	3.02	3.24	2	2.3
194.2 µg/ml, genetic background: Δrob	2.47	2.31	2.93	2.62	2.41	2.25	2.35	2.62
194.2 µg/ml, genetic background: ΔsoxS	2.8	2.3	2.53	1.92	2.62	2.58	2.34	2.79

N[C@@H](C(=O)N[C@@H]1C(=O)N2C(C(=O)O)=C(Cl)CS[C@H]12)c1ccccc1 [Cefaclor]
growth
Conditions	reporter plasmid: EVC	reporter plasmid: acrABp	reporter plasmid: marRABp	reporter plasmid: micFp	reporter plasmid: ompFp	reporter plasmid: robp	reporter plasmid: soxSp	reporter plasmid: tolCp
0.11 µg/ml, genetic background: wild type	2.69	3.34	3.38	3.04	3.15	3.23	2.95	3.027
0.11 µg/ml, genetic background: ΔmarA	3.21	3.88	3.76	3.11	3.55	3.77	2.91	3.05
0.11 µg/ml, genetic background: Δrob	3.16	3.27	3.54	3	2.68	2.94	2.8	3.03
0.11 µg/ml, genetic background: ΔsoxS	3.184	3.15	3.06	2.94	3.28	3.32	3.24	3.011
0.23 µg/ml, genetic background: wild type	2.79	3.1	3.37	3.14	3.213	3.32	2.83	3.12
0.23 µg/ml, genetic background: ΔmarA	3.17	3.95	3.79	3.11	3.43	3.87	2.81	2.95
0.23 µg/ml, genetic background: Δrob	3.1	3.09	3.4	3.06	2.52	2.9	2.73	3.211
0.23 µg/ml, genetic background: ΔsoxS	3.29	3.24	3.4	3.02	3.44	3.25	3.26	3.23
0.46 µg/ml, genetic background: wild type	2.74	3.64	3.34	2.98	3.28	3.23	2.84	3
0.46 µg/ml, genetic background: ΔmarA	2.96	3.78	2.13	3.01	3.34	3.67	2.92	1.94
0.46 µg/ml, genetic background: Δrob	2.78	2.6	2.98	2.36	1.85	2.35	2.54	2.72
0.46 µg/ml, genetic background: ΔsoxS	3.24	3.15	3.38	2.85	3.32	3.019	3.05	2.94
0.92 µg/ml, genetic background: wild type	-0.225	-0.0218	0.0579	-0.0127	-0.0623	0.0599	0.099	0.139
0.92 µg/ml, genetic background: ΔmarA	-0.0168	-0.00749	0.00416	-0.00444	-0.0365	-0.028	0.00139	-0.0548
0.92 µg/ml, genetic background: Δrob	0.0876	-0.0122	0.00608	-0.0977	-0.0607	-0.0151	-0.0164	0.0553
0.92 µg/ml, genetic background: ΔsoxS	0.0437	0.0343	0.0313	0.0248	0.0456	0.033	0.00873	0.0555

Nc1ccn(C[C@@H](CO)OCP(=O)(O)O)c(=O)n1 [Cidofovir]
growth
Conditions	reporter plasmid: EVC	reporter plasmid: acrABp	reporter plasmid: marRABp	reporter plasmid: micFp	reporter plasmid: ompFp	reporter plasmid: robp	reporter plasmid: soxSp	reporter plasmid: tolCp
17.4 µg/ml, genetic background: wild type	2.96	3.04	3.26	3.12	3.24	3.31	3.102	3.18
17.4 µg/ml, genetic background: ΔmarA	3.11	4.27	3.85	3.15	3.45	3.69	2.78	2.98
17.4 µg/ml, genetic background: Δrob	2.45	3.01	3.45	2.97	2.67	2.64	2.87	3.02
17.4 µg/ml, genetic background: ΔsoxS	3.07	3.19	3.2	2.35	2.9	2.987	3.15	3
34.9 µg/ml, genetic background: wild type	2.95	2.68	3.1	3.12	2.97	3.32	3.12	3.094
34.9 µg/ml, genetic background: ΔmarA	3.04	4.21	4.04	3.33	3.49	3.69	2.79	2.96
34.9 µg/ml, genetic background: Δrob	2.89	3.13	3.18	3.13	2.62	2.73	2.99	3.1
34.9 µg/ml, genetic background: ΔsoxS	3.2	3.18	3.41	2.81	2.9	3.31	3.03	3.21
69.8 µg/ml, genetic background: wild type	2.63	2.95	3.44	3.12	3.34	3.34	3.12	3.185
69.8 µg/ml, genetic background: ΔmarA	3.25	4.22	4.08	3.26	3.58	3.91	2.83	3.05
69.8 µg/ml, genetic background: Δrob	2.65	3.01	3.42	2.9	2.68	2.72	2.9	3.02
69.8 µg/ml, genetic background: ΔsoxS	3.03	2.96	3.13	2.67	2.61	3.19	2.92	2.819
139.6 µg/ml, genetic background: wild type	2.72	2.78	3.11	3.02	2.97	3.1	2.93	2.98
139.6 µg/ml, genetic background: ΔmarA	3.14	4.03	3.73	3.29	3.5	4.01	2.84	2.93
139.6 µg/ml, genetic background: Δrob	2.82	2.86	3.18	2.91	2.51	2.55	2.77	3.06
139.6 µg/ml, genetic background: ΔsoxS	3.23	2.76	2.91	2.7	2.7	3.07	3.01	2.84

These are raw signals, not scaled to a control.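 Maximum concentrations were near the MIC for antimicrobials, 500 µM for most other compounds, and as high as 1 mM for known inducer-like compounds. Deletion strains began with a tenfold smaller inoculum, and wells with growth under 10% of the overall median counted as non-growing.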
